This is one part of the list.

This assay has as its target T1, OsSMF1 (Oryza sativa, UniProt Q6ZLB0 1-436).
T1 sequence: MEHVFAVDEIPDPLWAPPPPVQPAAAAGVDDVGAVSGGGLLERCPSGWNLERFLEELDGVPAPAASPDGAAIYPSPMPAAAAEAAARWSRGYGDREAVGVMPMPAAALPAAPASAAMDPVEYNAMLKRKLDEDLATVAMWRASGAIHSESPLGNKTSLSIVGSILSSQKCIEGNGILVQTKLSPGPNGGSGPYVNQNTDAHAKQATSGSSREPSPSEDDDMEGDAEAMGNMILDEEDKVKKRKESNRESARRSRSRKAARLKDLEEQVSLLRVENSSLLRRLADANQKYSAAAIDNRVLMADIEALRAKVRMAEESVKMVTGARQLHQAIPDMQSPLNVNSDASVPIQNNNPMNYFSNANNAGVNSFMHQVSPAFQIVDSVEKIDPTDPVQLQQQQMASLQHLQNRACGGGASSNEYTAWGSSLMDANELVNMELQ
Put plainly: protein-binding microarray (RPBM); PBS, 2% BSA, 51.3 ng/ul salmon testes DNA, 50 uM zinc acetate, 200 nM TF, 25 C, 1 h; high values mean tight binding. The following applies: protein: recombinant; tags: N-terminal polyhistidine and DsRed monomer fusion (pET32a); chain copies: 2; label: CyDye5-dUTP incorporated in the synthesized complementary strand; 3' TTTTT single-stranded linker to array surface; dsDNA, one strand shown. A digest of the protocol: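 Binding signal here means per-feature fluorescence intensity in arbitrary units. The values were read on an Axon 4000B scanner after a custom Agilent array, double-stranded by primer extension with Cy5-dUTP, was incubated with 200 nM protein at 25 °C for 1 h in PBS with 2% BSA, salmon testes DNA and 50 µM zinc acetate, then washed. The proteins were transcription factors with an N-terminal polyhistidine tag and DsRed, expressed in E. coli BL21-CodonPlus and purified on Ni–NTA.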
As to “AGTGGTAGTGGTATCCACCTGTGCCATAAATATATCCTCCCGGAGTCACCTAGTGCAG”, the binding signal was 4060 fluorescence intensity (a.u.).
To “CTGATCAGCAGCCACCACCACCGGTCACCCCTGCAGGCCTCGGAGTCACCTAGTGCAG” belongs 37000 fluorescence intensity (a.u.).
To “TCAATTTGACGTTAACAGTGCCACGAGTACAGCCAAACCGCGGAGTCACCTAGTGCAG” belongs 3460 fluorescence intensity (a.u.); to “GTATGTACAAAAGGGGAGAGAGGGTTACGTGTGGGAGGAGCGGAGTCACCTAGTGCAG”, 3340 fluorescence intensity (a.u.); to “TATTATCACAGTGACGTTGATAGTGTCTCTGGTCGCCTGACGGAGTCACCTAGTGCAG”, 4060 fluorescence intensity (a.u.).
To “TGACTGTATTGAAAGATAGTTGATGCATTTACGTAGTAGTCGGAGTCACCTAGTGCAG” belongs 3270 fluorescence intensity (a.u.); to “AAAATCCACGGCGCGGCGCCGTGGCCGTCGGATTTCCCGCCGGAGTCACCTAGTGCAG”, 3330 fluorescence intensity (a.u.); to “ATGTTTAGTACTAGTTTCTCGATGATGTGGAGTTTATAGACGGAGTCACCTAGTGCAG”, 6530 fluorescence intensity (a.u.).
On to “TAAGGAGGGTGTTGGGAGGGTGGGAGCTTTGCTTGGGGTGCGGAGTCACCTAGTGCAG”, for which the binding signal is 3950 fluorescence intensity (a.u.).
Take “GTGAACTGGTGGTGTTCCGAGCTGTGGTCGCATATATATCCGGAGTCACCTAGTGCAG”: the binding signal is 3410 fluorescence intensity (a.u.).
The result for “TGAAAATATAGGGTATATATAATTGTAGAGATGACGTCGTCGGAGTCACCTAGTGCAG” reads 3230 fluorescence intensity (a.u.).
Consider “TACACATATATCGCCCATATACGTCCACGTCAACACATTTCGGAGTCACCTAGTGCAG”, for which the binding signal is 16000 fluorescence intensity (a.u.).
For “ATGTTTCTGCGGCCCGTCATCCGTGTTTGAGTCGGTTATACGGAGTCACCTAGTGCAG”, the binding signal was 4220 fluorescence intensity (a.u.).
To “CGTCGCCGCCAACTACGCCGACCTCACCACCGCCGCGTGGCGGAGTCACCTAGTGCAG” belongs 4720 fluorescence intensity (a.u.); to “AAGCGCACGCACACATATGCCACGCATTGACGCATGGCACCGGAGTCACCTAGTGCAG”, 5630 fluorescence intensity (a.u.).
To “ACCGCGCCGACCTCGACCTCACGCGCCTCGGCCGGCAAAGCGGAGTCACCTAGTGCAG” belongs 5650 fluorescence intensity (a.u.); to “CACAAATTGTAAACATACTACCACCTCAGCTTGCTAGGCGCGGAGTCACCTAGTGCAG”, 4370 fluorescence intensity (a.u.); to “CCTGCTGACCAACCTACGCTAGCTATCTTCCTCTTGTCGTCGGAGTCACCTAGTGCAG”, 3940 fluorescence intensity (a.u.).
To “CTTCTTCCCATCAACACCATCGCCACATCACAAGCAGCCACGGAGTCACCTAGTGCAG” belongs 4700 fluorescence intensity (a.u.).
Consider “CGCGTTGAGTGCAGCGTACGTGGAAGCCTTCCCAGCCTGTCGGAGTCACCTAGTGCAG”, for which the binding signal is 3360 fluorescence intensity (a.u.).
The result for “CAAGATGTCCAGCGCCGACGTGGAAGGGGCCGAGAAGGTGCGGAGTCACCTAGTGCAG” reads 4240 fluorescence intensity (a.u.).
Turning to “ATCTGGAGGAGAGGTGAGACGAGCGTGGCGGAGACCGGTGCGGAGTCACCTAGTGCAG”, the binding signal is 3780 fluorescence intensity (a.u.).
Take “TAACCGGTAGAGGCGTGTCATTCTGACGCGGACGGCCACTCGGAGTCACCTAGTGCAG”: the binding signal was 8840 fluorescence intensity (a.u.).
The result for “TTTATACATATGTGTTTATCATACCTCACGTGTCGTATATCGGAGTCACCTAGTGCAG” reads 4720 fluorescence intensity (a.u.); that for “TGAGTGCAGCTACATCAAGATTCCGTCAGCATTTATGAATCGGAGTCACCTAGTGCAG”, 5400 fluorescence intensity (a.u.).
To “ATGTCCTCCTCTCGTTGACATCTTGACTTTCGTTGCCACCCGGAGTCACCTAGTGCAG” belongs 24000 fluorescence intensity (a.u.); to “CCCTAGAGGAGGGAAGGAGGAAGGGGATGGACAAAGTAGACGGAGTCACCTAGTGCAG”, 3410 fluorescence intensity (a.u.); to “AAAGCAACTGCTAACTCGCAAAGGTGTCACCAAGTTGCCCCGGAGTCACCTAGTGCAG”, 3200 fluorescence intensity (a.u.).
To “TCGCCCACGGATTCCCCTCCACTCGCACTGTCAGTCTGTCCGGAGTCACCTAGTGCAG” belongs 4180 fluorescence intensity (a.u.); to “CAAAACTCACGTGGGTATTCAAATTCGAACTATATACATCCGGAGTCACCTAGTGCAG”, 3530 fluorescence intensity (a.u.).
In the case of “TTTTGTTATTAGTCTACGTTTAATAATTCAAATACGTGTCCGGAGTCACCTAGTGCAG”, the binding signal is 3880 fluorescence intensity (a.u.).
To “TATCTCCCTCGGGAGACGTGCCACGTCGCTGTGTCTATCACGGAGTCACCTAGTGCAG” belongs 9480 fluorescence intensity (a.u.).
The result for “CTCGCCCTCGACACGCTGGAAGTTTGTGTACGCGTCATTCCGGAGTCACCTAGTGCAG” reads 9100 fluorescence intensity (a.u.).
To “GTTTTCGCTTGTACTTCACAGGCTGATCACGGTCAGTACTCGGAGTCACCTAGTGCAG” belongs 48700 fluorescence intensity (a.u.); to “TAGCCTAAAAGTTCCAAACACGTGAGCTATTTCAGGGCTACGGAGTCACCTAGTGCAG”, 3790 fluorescence intensity (a.u.); to “ATGGACAACTACGTTGGCGCCAAGACCAGTCACACATGCTCGGAGTCACCTAGTGCAG”, 3710 fluorescence intensity (a.u.).
Turning to “GGCTGATCCACCCGGCCACGCGGTACGTGACGCGGGGCTTCGGAGTCACCTAGTGCAG”, the binding signal is 4250 fluorescence intensity (a.u.).
Consider “GCAGCACAGCCTGTGTGTCACCACTCACCAGGGAGGAGGCCGGAGTCACCTAGTGCAG”, for which the binding signal is 6070 fluorescence intensity (a.u.).
On to “GAATCCCTGCTTTGAGATCGACGTGTACTCTCCCTCCCTGCGGAGTCACCTAGTGCAG”, for which the binding signal is 4340 fluorescence intensity (a.u.).
The result for “AATTACATAATTTTAATACGAAGATGAATGATCAAATATACGGAGTCACCTAGTGCAG” reads 56600 fluorescence intensity (a.u.); that for “TCCCTTCCCTGTTCCTGGCGACGTGTCACCTTCTTATTCGCGGAGTCACCTAGTGCAG”, 11000 fluorescence intensity (a.u.).
As for “CAATAGACTTCAAGGAAGCATACCAATACCAGTAACCACACGGAGTCACCTAGTGCAG”, the binding signal was 40800 fluorescence intensity (a.u.).

The record behind these values is PMC7819943, “Rice protein-binding microarrays: a tool to detect cis-acting elements near promoter regions in rice”.
